# Experimental data: PubChem BioAssay AID1347423 (Functional Genomics Laboratory (NCATS/FGL), 2020)
# In all, about 52,000 sequences went through this assay and about 210 (0.4%) were called active.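 The calls were made as follows: active = gene whose silencing raises cell survival under the drug, median off-target-corrected z-score across its silencing RNAs 2 or more; inactive = the rest.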 Some of the results follow.
# Experiment: Resistance to Poly (ADP-Ribose) Polymerase inhibitor: Gene Identification via Genome-wide siRNA Screen
# Details: mouse BRCA2 R2336H ES cells, olaparib, CellTiter-Glo viability; hits give high values
# Outline: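 Genome-wide siRNA screen (3 siRNAs/gene, 20 nM) in mouse ES cells carrying hypomorphic BRCA2 R2336H; olaparib 500 nM added 48 h post-transfection, CellTiter-Glo viability 72 h later. Normalized to plate-median negative control; MAD z-scores, gene median, seed-adjusted.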
row,Sequence,z-score
1,GGCAGAGAUUAGAUCUCAGTT against 1700025D03Rik,inactive: -0.468
2,CCUUUAACCCUCAACUCAATT against H47,inactive: -0.11
3,GGUAAUUAGUGAAAUGGUUTT against Pum2,inactive: 0.653
4,CCCAGUUGGUGUUUAUAUATT against Ppp3cb,inactive: 1.36
5,CGAUUUGGCCUUGAUGGGUTT against Wtip,inactive: -0.561
6,CGGUUACAGGUGAAAUCCUTT against Sval1,inactive: -1.62
7,GGAUUUUGAGAAGAACAAUTT against Tceb3,inactive: 0.251
8,GCUGCUUCUAAACUUUGUATT against BC038059,inactive: 0.0695
9,GGCAGGUUUUUGACAACUUTT against Fxyd4,inactive: -0.598
10,GCGCAAAGGGUUUGUUAAGTT against Mogat1,inactive: 0.0768
11,GCAAAUGCUGUCAGUGGGATT against Cd59b,inactive: 0.44
12,GGUGUCUUUACGUCUCCCATT against Neto1,inactive: 1.28
13,GGUCGUCUUUUAAGAGUUUTT against 2010109K11Rik,inactive: 0.648
14,GGGACUAUUUCAACAAAGUTT against 1700013B16Rik,inactive: 0.433
15,GGAGUCUGUGAACAAUCUCTT against Mx2,inactive: 0.404
16,CCCUGUUUAACUAUUACAATT against Tmc2,inactive: -0.732
17,GGAGAGAAAAACACCUAUGTT against Prlr,inactive: -0.897
18,GGAAACGAUGAAGAACAAATT against 4933427D06Rik,inactive: -0.835
19,GGAGUCAAGUACGAUGUGATT against C8b,inactive: -1.87
20,GCUGGUAUGGAUUGUUUCGTT against Ccng2,inactive: 0.25
21,GGUAUAGUAGUGGAAGAUUTT against Vdp,inactive: 0.586
22,GGCUGAUUAUCACAGCAAGTT against Ablim2,inactive: 0.145
23,GGUACAAAUCGAUUGUCAATT against Fdps,inactive: 0.431
24,GGUACACCAAGGCUUGCUATT against Adck4,inactive: -0.932
25,GGAAAAGAAGUGACCUGCUTT against Anapc4,inactive: -1.98
26,GGCCUGGAAGUCAUAUCUGTT against Tcfcp2l3,inactive: 1.08

row,Sequence,z-score
1,CGCACAGUACCUUUACCUCTT against A630052C17Rik,inactive: -0.415
2,GCCAUGGAAAAUUUCCUCCTT against Olfr357,inactive: 0.495
3,GCUAAGUACAACUUCACAATT against Olfr303,inactive: -1.1
4,GCUAACAUGUGUGCAGACCTT against Csf2,inactive: -1.22
5,GGAAUUGGAUGAAAUGCCATT against BC024479,inactive: 1.16
6,GGCUAUAAAGAAGAGUCUGTT against Adhfe1,inactive: -0.0804
7,GGUUCUUUCAGAAAAUGGATT against Csen,inactive: 0.321
8,GGAUGAGAUCAACUUCCUCTT against Krt2-7,inactive: 0.139
9,GGAAGUAUCUGGAAAGGGATT against Usp2,inactive: 0.595
10,GGUAUCAGAGACAACCAAATT against Chad,inactive: -1.26
11,GUAUGAACCUAACACAUUCTT against V1rh17,inactive: -0.987
12,GGUUUGUAGAGGCAUCAAGTT against Snph,inactive: 0.512
13,GGAGAUAAAGGGAACACCATT against 2410001C21Rik,inactive: 2.97
14,CGCCUAAGAAUAUGAAAAATT against Nek3,inactive: -0.954
15,CCAGGAUCAAAGAACUUAUTT against Olfr1424,inactive: 0.117
16,GGAGGCUGAAAAGUUCCGGTT against 1110007C09Rik,inactive: -0.754
17,GGACAGUCAAAAAUUGUUCTT against Cyp7b1,inactive: 0.0197
18,GGAGAAGGAGAAACAGAAATT against Tmepai,inactive: -1.84
19,GGAGAUGGAUCACUUAAAUTT against Cdh6,inactive: 0.706
20,CCUAAUCUUCGUGCUUUACTT against Minpp1,inactive: 0.968
21,GGCGAAGUAUCUGAUGAGGTT against A930027K05Rik,inactive: 1
22,GCUUAUCGUAAAGUAGCACTT against Dnajb7,inactive: 1.37
23,GGAACUGAUAUCAUGUACATT against Slc25a5,inactive: 0.748
24,GGGAUGAAGUCCUGGAUAATT against Atp6v1g1,inactive: -1.87
25,CGAUCUUCCGCUCUGACUCTT against Gm226,inactive: -1.34
26,GCACUGUCGCAUCAUCAGATT against D230025D16Rik,inactive: 1.44

# Reformatted tab-delimited: entries from further up.
row	Sequence	z-score
4	GCUAACAUGUGUGCAGACCTT against Csf2	inactive: -1.22
5	GGAAUUGGAUGAAAUGCCATT against BC024479	inactive: 1.16
6	GGCUAUAAAGAAGAGUCUGTT against Adhfe1	inactive: -0.0804
7	GGUUCUUUCAGAAAAUGGATT against Csen	inactive: 0.321
8	GGAUGAGAUCAACUUCCUCTT against Krt2-7	inactive: 0.139
9	GGAAGUAUCUGGAAAGGGATT against Usp2	inactive: 0.595
10	GGUAUCAGAGACAACCAAATT against Chad	inactive: -1.26
11	GUAUGAACCUAACACAUUCTT against V1rh17	inactive: -0.987
12	GGUUUGUAGAGGCAUCAAGTT against Snph	inactive: 0.512
13	GGAGAUAAAGGGAACACCATT against 2410001C21Rik	inactive: 2.97
14	CGCCUAAGAAUAUGAAAAATT against Nek3	inactive: -0.954
15	CCAGGAUCAAAGAACUUAUTT against Olfr1424	inactive: 0.117
16	GGAGGCUGAAAAGUUCCGGTT against 1110007C09Rik	inactive: -0.754
17	GGACAGUCAAAAAUUGUUCTT against Cyp7b1	inactive: 0.0197
18	GGAGAAGGAGAAACAGAAATT against Tmepai	inactive: -1.84
19	GGAGAUGGAUCACUUAAAUTT against Cdh6	inactive: 0.706
